# The list shows only some results of the screen, not a fair sample: it is rich in T/C values a quarter to a half above the control, in often repeated tests (any T/C) and in doses without a T/C. Other doses and runs of a compound stand elsewhere. T/C gives the treated animals as a percentage of the vehicle group. Some entries give survivors of the animals treated and no T/C: the source holds a T/C of zero for them, seemingly a mark for toxic or unscored doses. Some survivor counts are full or nearly so, which does not show that the dose was tolerated: survival well below the control is almost never listed, so the zero probably covers shortened survival too. Counts of survivors are from the toxicity check (mostly the fifth day) where no day follows; animals may have died later. Schedule codes are those of the source, read here as Q, the interval in days (D) or hours (H), X, the number of doses. Some entries hold several experiments; the results are listed from low to high. Some schedules carry Z or #; the key to these is not given. Where survival is the endpoint, this PubChem deposit counts one and a half times the control or more as active, and values a quarter to a half above the control carry no call in these data; other NCI protocols may use other cut-offs. Some T/C values are followed by the survivors on the day toxicity was checked, most often the fifth; without a count, all were alive then.
# Test system: L1210 leukemia ip in BDF1 mice, survival T/C
# Experiment: NCI In Vivo Anticancer Drug Screen. Data for tumor model L1210 Leukemia (intraperitoneal) in B6D2F1 (BDF1) mice
# Conditions: vehicle: saline, higher T/C = longer survival
# [1] = T/C endpoint: mean survival time, dose: 2.0 mg/kg/injection, schedule: Q04DX003 (ip)
# [2] = T/C endpoint: mean survival time, dose: 7.5 mg/kg/injection, schedule: Q01DX001 (ip)
smiles,measurement,setting,value
COc1cc2c(c(OC)c1OC)-c1ccc(OC)c(=O)cc1[C@@H](NC(C)=O)CC2,T/C,"T/C endpoint: mean survival time, dose: 0.5 mg/kg/injection, schedule: Q04DX003 (ip)",134 % of control
same,T/C,"T/C endpoint: mean survival time, dose: 0.5 mg/kg/injection, schedule: Q08DX002 (ip)",125 % of control
same,T/C,"T/C endpoint: mean survival time, dose: 1.0 mg/kg/injection, schedule: Q01DX001 (ip)",126 % of control
same,T/C,"T/C endpoint: mean survival time, dose: 1.0 mg/kg/injection, schedule: Q04DX003 (ip)",141 % of control
same,T/C,"T/C endpoint: mean survival time, dose: 1.0 mg/kg/injection, schedule: Q08DX002 (ip)",131 % of control
same,T/C,"T/C endpoint: mean survival time, dose: 2.0 mg/kg/injection, schedule: Q01DX001 (ip)",132 % of control
same,T/C,[1],128 % of control [9 of 10 alive]
same,survivor count,[1],3 of 6
same,T/C,"T/C endpoint: mean survival time, dose: 2.0 mg/kg/injection, schedule: Q08DX002 (ip)",129 % of control [9 of 10 alive]
same,T/C,"T/C endpoint: mean survival time, dose: 2.4 mg/kg/injection, schedule: Q## X032 (ip)",133 % of control
same,T/C,"T/C endpoint: mean survival time, dose: 2.5 mg/kg/injection, schedule: Q01DX001 (ip)",134 % of control
same,T/C,"T/C endpoint: mean survival time, dose: 3.0 mg/kg/injection, schedule: Q## X004 (ip)",141 % of control
same,T/C,"T/C endpoint: mean survival time, dose: 4.0 mg/kg/injection, schedule: Q01DX001 (ip)",127 % of control [7 of 10 alive]
same,survivor count,"T/C endpoint: mean survival time, dose: 4.0 mg/kg/injection, schedule: Q01DX005 (oral)",2 of 10
same,survivor count,"T/C endpoint: mean survival time, dose: 4.0 mg/kg/injection, schedule: Q04DX003 (ip)",8 of 10 and 6 of 6
same,T/C,"T/C endpoint: mean survival time, dose: 5.0 mg/kg/injection, schedule: Q01DX001 (ip)",146 % of control [9 of 10 alive]
same,survivor count,"T/C endpoint: mean survival time, dose: 5.4 mg/kg/injection, schedule: Q## X032 (ip)",8 of 10
same,T/C,[2],143 % of control [8 of 10 alive]
same,survivor count,[2],0 of 6 and 1 of 6
same,survivor count,"T/C endpoint: mean survival time, dose: 8.0 mg/kg/injection, schedule: Q01DX001 (ip)",5 of 10
same,survivor count,"T/C endpoint: mean survival time, dose: 8.0 mg/kg/injection, schedule: Q01DX001 (iv)",0 of 10
same,survivor count,"T/C endpoint: mean survival time, dose: 8.0 mg/kg/injection, schedule: Q08DX002 (ip)",3 of 10
same,survivor count,"T/C endpoint: mean survival time, dose: 11.2 mg/kg/injection, schedule: Q01DX001 (ip)",0 of 6 and 1 of 6
same,survivor count,"T/C endpoint: mean survival time, dose: 11.25 mg/kg/injection, schedule: Q01DX001 (ip)",1 of 10
same,survivor count,"T/C endpoint: mean survival time, dose: 16.0 mg/kg/injection, schedule: Q01DX001 (oral)",1 of 10
same,survivor count,"T/C endpoint: mean survival time, dose: 32.0 mg/kg/injection, schedule: Q01DX001 (oral)",0 of 10
same,T/C,"T/C endpoint: mean survival time, dose: 250.0 micrograms/kg/injection, schedule: Q01DX009 (ip)",132 % of control
same,T/C,"T/C endpoint: mean survival time, dose: 250.0 micrograms/kg/injection, schedule: Q03HX008 (ip)",135 % of control [9 of 10 alive]
same,T/C,"T/C endpoint: mean survival time, dose: 500.0 micrograms/kg/injection, schedule: Q01DX009 (ip)",136 % of control
same,survivor count,"T/C endpoint: mean survival time, dose: 500.0 micrograms/kg/injection, schedule: Q03HX008 (ip)",0 of 10
same,survivor count,"T/C endpoint: mean survival time, dose: 500.0 micrograms/kg/injection, schedule: Q03HX016 (ip)",0 of 10
same,survivor count,"T/C endpoint: mean survival time, dose: 500.0 micrograms/kg/injection, schedule: Q03HX024 (ip)",0 of 10
same,survivor count,"T/C endpoint: mean survival time, dose: 1000.0 micrograms/kg/injection, schedule: Q03HX008 (ip)",0 of 10
same,survivor count,"T/C endpoint: mean survival time, dose: 1000.0 micrograms/kg/injection, schedule: Q03HX016 (ip)",0 of 10
same,T/C,"T/C endpoint: median survival time, dose: 0.16 mg/kg/injection, schedule: Q01DX009 (ip)",127 % of control

# Source: PubChem BioAssay AID248 (DTP/NCI, 2004)
